PubChem BioAssay AID1259424, University of Nebraska Medical Center – 2018
Test: 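Rank knockdowns across the genome by resemblance to the KSR1 depletion profile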 (primary screen). Cell system: human HCT116 colon cancer cells. Knock-down reagent: siRNA pool against human genes, 50 nM. Measurement: 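Log2 levels of six mRNAs (branched-DNA multiplex), adjusted by two reference genes and the non-targeting median, then scored against the average KSR1 knockdown pattern as Pearson r and euclidean distance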. Direction: mean correlation with KSR1 profile: higher = expression change more like KSR1 knockdown.
Shown is a random part of about 14,000 reagents. 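Higher correlation or smaller distance means closer resemblance to KSR1 loss; control wells, including KSR1 knockdowns, recur on many plates.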 Reagents against one gene are numbered here. Not all columns of the deposit are shown. Not stated in the record: the time to read-out.

PSMD11 → mean correlation with KSR1 profile: -0.263
ZNF273 → mean correlation with KSR1 profile: 0.107
H4C7 → mean correlation with KSR1 profile: -0.464
AGXT2 → mean correlation with KSR1 profile: 0.397
PTDSS2 → mean correlation with KSR1 profile: 0.79
SMU1 → mean correlation with KSR1 profile: -0.463
NEK2 → mean correlation with KSR1 profile: 0.048
CDC20 → mean correlation with KSR1 profile: -0.6
BEND5 → mean correlation with KSR1 profile: -0.231
FOXN3 #1 → mean correlation with KSR1 profile: 0.0344
FOXN3 #2 → mean correlation with KSR1 profile: -0.712
ITIH4 → mean correlation with KSR1 profile: -0.146
